Laboratory results as given in PubChem BioAssay AID248 (DTP/NCI, 2004).
The list does not hold the whole screen: it gathers tests that were run many times, whatever their T/C, doses with no T/C, and many T/C values between a quarter and a half above the control. Further doses and runs are listed elsewhere. T/C: endpoint of the treated group in % of that of the vehicle group. Some doses have a count of surviving animals in place of a T/C: the source holds a T/C of zero for them, seemingly a mark for toxic or unscored doses. Some doses without a T/C left all or most animals alive at the check, yet need not have been tolerated: survival well below the control is almost never listed, so the zero probably covers shortened survival too. Counts of survivors are from the toxicity check (mostly the fifth day) where no day follows; animals may have died later. Schedule codes are those of the source, read here as Q, the interval in days (D) or hours (H), X, the number of doses. Some doses were run more than once; their values stand side by side, smallest first. Signs of the kind (2×) count equal records among those shown. Where survival is the endpoint, the PubChem record calls one and a half times the control and up active, and a quarter to a half above the control has no call in these data; cut-offs in other NCI protocols can differ. Some T/C values carry the count of animals alive at the toxicity check (mostly the fifth day); without a count, all were alive then.

System: L1210 leukemia ip in BDF1 mice, survival T/C
Test: NCI In Vivo Anticancer Drug Screen. Data for tumor model L1210 Leukemia (intraperitoneal) in B6D2F1 (BDF1) mice
Conditions: higher T/C = longer survival

S=P(N1CC1)(N1CC1)N1CC1
survivor count (T/C endpoint: mean survival time, dose: 64.0 mg/kg/injection, schedule: Q04DX003 (ip), vehicle: saline): 3 of 10, 5 of 10, 5 of 6 | survivor count (T/C endpoint: mean survival time, dose: 96.0 mg/kg/injection, schedule: Q01DX001 (ip), vehicle: saline): 0 of 10 | survivor count (T/C endpoint: mean survival time, dose: 100.0 mg/kg/injection, schedule: Q01DX001 (ip), vehicle: saline): 6 of 6 | survivor count (T/C endpoint: mean survival time, dose: 128.0 mg/kg/injection, schedule: Q01DX001 (oral), vehicle: saline): 3 of 10 and 10 of 10 | survivor count (T/C endpoint: mean survival time, dose: 200.0 mg/kg/injection, schedule: Q01DX001 (ip), vehicle: saline): 5 of 6 | survivor count (T/C endpoint: mean survival time, dose: 256.0 mg/kg/injection, schedule: Q01DX001 (oral), vehicle: saline): 2 of 10 and 7 of 10 | survivor count (T/C endpoint: mean survival time, dose: 512.0 mg/kg/injection, schedule: Q01DX001 (oral), vehicle: saline): 0 of 10 (2×) | T/C (T/C endpoint: median survival time, dose: 2.0 mg/kg/injection, schedule: Q01DX009 (ip), vehicle: water, evaluated on day 5): 129 % of control | T/C (T/C endpoint: median survival time, dose: 2.0 mg/kg/injection, schedule: Q01DX009 (ip), vehicle: water, evaluated on day 33): 129 % of control [7 of 8 alive] | T/C (T/C endpoint: median survival time, dose: 3.0 mg/kg/injection, schedule: Q01DX001 (ip), vehicle: water, evaluated on day 5): 99, 101, 104, 108, 117 % of control | T/C (T/C endpoint: median survival time, dose: 3.0 mg/kg/injection, schedule: Q01DX001 (ip), vehicle: water, evaluated on day 7): 113 % of control | T/C (T/C endpoint: median survival time, dose: 3.0 mg/kg/injection, schedule: Q01DX001 (ip), vehicle: water, evaluated on day 29): 101 % of control | T/C (T/C endpoint: median survival time, dose: 3.0 mg/kg/injection, schedule: Q01DX001 (ip), vehicle: water, evaluated on day 30): 100 and 108 % of control | T/C (T/C endpoint: median survival time, dose: 3.0 mg/kg/injection, schedule: Q01DX001 (ip), vehicle: water, evaluated on day 33): 117 % of control | T/C (T/C endpoint: median survival time, dose: 3.0 mg/kg/injection, schedule: Q01DX001 (ip), vehicle: water, evaluated on day 35): 113 % of control | T/C (T/C endpoint: median survival time, dose: 3.0 mg/kg/injection, schedule: Q01DX001 (ip), vehicle: water, evaluated on day 47): 104 % of control | T/C (T/C endpoint: median survival time, dose: 3.0 mg/kg/injection, schedule: Q01DX009 (ip), vehicle: distilled water + alcohol): 149 % of control | T/C (T/C endpoint: median survival time, dose: 3.0 mg/kg/injection, schedule: Q01DX009 (ip), vehicle: other): 127 % of control | T/C (T/C endpoint: median survival time, dose: 3.0 mg/kg/injection, schedule: Q01DX009 (ip), vehicle: water, evaluated on day 5): 141 % of control | T/C (T/C endpoint: median survival time, dose: 3.0 mg/kg/injection, schedule: Q01DX009 (ip), vehicle: water, evaluated on day 33): 141 % of control | T/C (T/C endpoint: median survival time, dose: 6.0 mg/kg/injection, schedule: Q01DX001 (ip), vehicle: water, evaluated on day 5): 110, 118, 121, 123, 126 % of control | T/C (T/C endpoint: median survival time, dose: 6.0 mg/kg/injection, schedule: Q01DX001 (ip), vehicle: water, evaluated on day 7): 99, 100, 102 (2×), 104, 125 % of control | T/C (T/C endpoint: median survival time, dose: 6.0 mg/kg/injection, schedule: Q01DX001 (ip), vehicle: water, evaluated on day 26): 100 % of control | T/C (T/C endpoint: median survival time, dose: 6.0 mg/kg/injection, schedule: Q01DX001 (ip), vehicle: water, evaluated on day 29): 118 % of control | T/C (T/C endpoint: median survival time, dose: 6.0 mg/kg/injection, schedule: Q01DX001 (ip), vehicle: water, evaluated on day 30): 110 and 126 % of control | T/C (T/C endpoint: median survival time, dose: 6.0 mg/kg/injection, schedule: Q01DX001 (ip), vehicle: water, evaluated on day 33): 121 % of control | T/C (T/C endpoint: median survival time, dose: 6.0 mg/kg/injection, schedule: Q01DX001 (ip), vehicle: water, evaluated on day 35): 125 % of control | T/C (T/C endpoint: median survival time, dose: 6.0 mg/kg/injection, schedule: Q01DX001 (ip), vehicle: water, evaluated on day 47): 123 % of control | T/C (T/C endpoint: median survival time, dose: 6.0 mg/kg/injection, schedule: Q01DX001 (ip), vehicle: water, evaluated on day 63): 100 and 104 % of control | survivor count (T/C endpoint: median survival time, dose: 6.0 mg/kg/injection, schedule: Q01DX009 (ip), vehicle: other): 8 of 8 | T/C (T/C endpoint: median survival time, dose: 12.0 mg/kg/injection, schedule: Q01DX001 (ip), vehicle: water, evaluated on day 5): 132, 134, 140, 154 % of control (2×) | T/C (T/C endpoint: median survival time, dose: 12.0 mg/kg/injection, schedule: Q01DX001 (ip), vehicle: water, evaluated on day 7): 91, 95, 117 (2×), 129, 162 % of control | T/C (T/C endpoint: median survival time, dose: 12.0 mg/kg/injection, schedule: Q01DX001 (ip), vehicle: water, evaluated on day 26): 91 % of control | T/C (T/C endpoint: median survival time, dose: 12.0 mg/kg/injection, schedule: Q01DX001 (ip), vehicle: water, evaluated on day 29): 132 % of control | T/C (T/C endpoint: median survival time, dose: 12.0 mg/kg/injection, schedule: Q01DX001 (ip), vehicle: water, evaluated on day 30): 134 and 154 % of control | T/C (T/C endpoint: median survival time, dose: 12.0 mg/kg/injection, schedule: Q01DX001 (ip), vehicle: water, evaluated on day 33): 140 % of control | T/C (T/C endpoint: median survival time, dose: 12.0 mg/kg/injection, schedule: Q01DX001 (ip), vehicle: water, evaluated on day 35): 162 % of control | T/C (T/C endpoint: median survival time, dose: 12.0 mg/kg/injection, schedule: Q01DX001 (ip), vehicle: water, evaluated on day 47): 154 % of control | T/C (T/C endpoint: median survival time, dose: 12.0 mg/kg/injection, schedule: Q01DX001 (ip), vehicle: water, evaluated on day 63): 95 and 129 % of control | survivor count (T/C endpoint: median survival time, dose: 12.0 mg/kg/injection, schedule: Q01DX009 (ip), vehicle: other): 6 of 8 | T/C (T/C endpoint: median survival time, dose: 24.0 mg/kg/injection, schedule: Q01DX001 (ip), vehicle: water, evaluated on day 5): 63, 86, 126 (2×), 159, 170, 179 % of control | T/C (T/C endpoint: median survival time, dose: 24.0 mg/kg/injection, schedule: Q01DX001 (ip), vehicle: water, evaluated on day 7): 88, 91, 96, 145 % of control | T/C (T/C endpoint: median survival time, dose: 24.0 mg/kg/injection, schedule: Q01DX001 (ip), vehicle: water, evaluated on day 26): 91 % of control | T/C (T/C endpoint: median survival time, dose: 24.0 mg/kg/injection, schedule: Q01DX001 (ip), vehicle: water, evaluated on day 29): 179 % of control | T/C (T/C endpoint: median survival time, dose: 24.0 mg/kg/injection, schedule: Q01DX001 (ip), vehicle: water, evaluated on day 30): 86 and 159 % of control | T/C (T/C endpoint: median survival time, dose: 24.0 mg/kg/injection, schedule: Q01DX001 (ip), vehicle: water, evaluated on day 33): 170 % of control | T/C (T/C endpoint: median survival time, dose: 24.0 mg/kg/injection, schedule: Q01DX001 (ip), vehicle: water, evaluated on day 63): 88 [7 of 8 alive] and 145 % of control | survivor count (T/C endpoint: median survival time, dose: 24.0 mg/kg/injection, schedule: Q01DX001 (ip), vehicle: water): 5 of 8 and 7 of 8 | survivor count (T/C endpoint: median survival time, dose: 24.0 mg/kg/injection, schedule: Q01DX009 (ip), vehicle: other): 0 of 8 | T/C (T/C endpoint: median survival time, dose: 48.0 mg/kg/injection, schedule: Q01DX001 (ip), vehicle: water, evaluated on day 5): 52, 59, 61, 159 % of control (2×) | T/C (T/C endpoint: median survival time, dose: 48.0 mg/kg/injection, schedule: Q01DX001 (ip), vehicle: water, evaluated on day 7): 78, 83, 99, 105 % of control | T/C (T/C endpoint: median survival time, dose: 48.0 mg/kg/injection, schedule: Q01DX001 (ip), vehicle: water, evaluated on day 26): 100 % of control | T/C (T/C endpoint: median survival time, dose: 48.0 mg/kg/injection, schedule: Q01DX001 (ip), vehicle: water, evaluated on day 63): 105 % of control [7 of 8 alive] | survivor count (T/C endpoint: median survival time, dose: 48.0 mg/kg/injection, schedule: Q01DX001 (ip), vehicle: water): 0 of 8, 1 of 8, 2 of 8, 4 of 8 (2×)
